# In the supplement of paper PMC7877785:
# ± gives the uncertainty stated by the source. Many entries were measured with a wide error.
# Test: self-splicing fitness, log relative to wild type (ln ratio); higher = more splicing; Tetrahymena group I intron in knt gene, E. coli kanamycin selection, DiMSum; sequences stand for … in CUCUCU…GGAGGGAAAAGUUAUCAGGCAUGCACCUGGUAGCUAGUCUUUAAACCAAUAGAUUGCAUCGGUUUAAAAGGCAAGACCGUCAAAUUGCGGGAAAGGGGUCAACAGCCGUUCAGUACCAAGUCUCAGGGGAAACUUUGAGAUGGCCUUGCAAAGGGUAUGGUAAUAAGCUGACGGACAUGGUCCUAACCACGCAGCCAAGUCCUAAGUCAACAGAUCUUCUGUUGAUAUGGAUGCAGUUCACAGACUAAAUGUCGGUCGGGGAAGAUGUAUUCUUCUCAUAAGAUAUAGUCGGACCUCUCCUUAAUGGGAGCUAGCGGAUGAAGUGAUGCAACACUGGAGCCGCUGGGAACUAAUUUGUAUGCGAAAGUAUAUUGAUUAGUUUUGGAGUACUCGUGGUCG
# In short: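 Library with all eight P1ex-region intron nucleotides randomised, intron inside the knt kanamycin-resistance gene on pET-22b(+), in E. coli BL21(DE3). Cells grew overnight at 37°C or 30°C on LB agar with or without 25 μg/mL kanamycin (plus 100 μg/mL carbenicillin, 50 μM IPTG, 0.2% rhamnose), in six replicate transformations. Pooled colonies were amplicon-sequenced on Illumina HiSeq 2500. DiMSum fitness is the error-weighted combination of wild-type-normalised replicate fold changes, kanamycin versus none.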
Sequence,self-splicing fitness (ln) (37 °C),self-splicing fitness (ln) (30 °C)
CAGUAGCAAUAUUACGCCGC,0.526 ± 0.82,
CAGAAGCAAUAUUACGGAGA,,-6.2 ± 1
UUUAAGCAAUAUUACGCUUC,-3.12 ± 0.52,
GCGUAGCAAUAUUACGGAAC,-0.432 ± 0.77,-1.45 ± 0.71
UCGUAGCAAUAUUACGUUCC,-1.6 ± 0.84,-4.04 ± 1.1
GGGAAGCAAUAUUACGGGGU,,-3.97 ± 0.74
UGCUAGCAAUAUUACGGAAC,-2.23 ± 1.1,
UUUCAGCAAUAUUACGCACC,-0.234 ± 1.4,-1.56 ± 1.2
UCUGAGCAAUAUUACGCGCC,-1.64 ± 0.58,-1.75 ± 0.58
UCAUAGCAAUAUUACGGCGC,-1.47 ± 0.87,
ACUCAGCAAUAUUACGCGAC,-1.85 ± 0.15,-2.16 ± 0.14
GCAUAGCAAUAUUACGGGCC,,-3.7 ± 0.52
UACAAGCAAUAUUACGACAU,-0.59 ± 0.032,-1.474 ± 0.012
CAAGAGCAAUAUUACGAGAU,-2.8 ± 0.28,-3.29 ± 0.29
GUCGAGCAAUAUUACGCCCU,,-2.06 ± 0.66
CUUGAGCAAUAUUACGUCCU,-2.76 ± 0.53,-4.37 ± 0.72
GUGUAGCAAUAUUACGAGCA,-1.32 ± 0.51,0.787 ± 0.61
AGCAAGCAAUAUUACGCUUA,-1.71 ± 0.11,-2.94 ± 0.15
CUUUAGCAAUAUUACGACCU,-2.83 ± 0.61,
CGCUAGCAAUAUUACGCGAC,-2.13 ± 0.65,-3.92 ± 0.52
AGGAAGCAAUAUUACGCUGC,-3.68 ± 0.73,
CGGAAGCAAUAUUACGCUUA,,-3.34 ± 0.74
AGUAAGCAAUAUUACGUUAG,-2.91 ± 0.74,
GUUGAGCAAUAUUACGCAUC,-2.35 ± 0.55,

# Record cards (already shown).
# CUUGAGCAAUAUUACGUCCU is listed with self-splicing fitness (ln) (37 °C): -2.76 ± 0.53; self-splicing fitness (ln) (30 °C): -4.37 ± 0.72
# CAGAAGCAAUAUUACGGAGA is listed with self-splicing fitness (ln) (30 °C): -6.2 ± 1
# UGCUAGCAAUAUUACGGAAC is listed with self-splicing fitness (ln) (37 °C): -2.23 ± 1.1
# CGGAAGCAAUAUUACGCUUA is listed with self-splicing fitness (ln) (30 °C): -3.34 ± 0.74

# Further results follow.

Sequence,self-splicing fitness (ln) (37 °C),self-splicing fitness (ln) (30 °C)
AUCAAGCAAUAUUACGGUAG,,-4.33 ± 0.51
AAAAAGCAAUAUUACGGGUC,-2.7 ± 0.26,-3.39 ± 0.16
UAGCAGCAAUAUUACGAGAC,-3.06 ± 0.32,-1.84 ± 0.24
CCCGAGCAAUAUUACGCCUG,-2.52 ± 0.55,
AGCGAGCAAUAUUACGAUGC,-3.08 ± 0.61,
GGUCAGCAAUAUUACGAAAA,-1.29 ± 1.2,
UAUCAGCAAUAUUACGCGAU,,-4.16 ± 0.51
UGUUAGCAAUAUUACGCUAC,-0.595 ± 1,-0.135 ± 1.2
GCUGAGCAAUAUUACGUCGG,,-1.75 ± 0.55
UCUCAGCAAUAUUACGGCCC,-2.47 ± 1.1,-2.82 ± 0.76
GUCGAGCAAUAUUACGUGGA,,-3.34 ± 0.74
UCUGAGCAAUAUUACGUCUC,-1.15 ± 0.55,-2.33 ± 0.66
CACGAGCAAUAUUACGUACC,-2.35 ± 0.57,
UGUUAGCAAUAUUACGUUUG,-1.26 ± 0.18,-2.14 ± 0.16
GAGCAGCAAUAUUACGAAGG,,-4.63 ± 0.72
UGUAAGCAAUAUUACGCGGC,,-3.9 ± 0.6
GCAUAGCAAUAUUACGGCAA,-0.271 ± 0.17,-1.49 ± 0.18
AGGCAGCAAUAUUACGGUGC,-2.89 ± 0.2,-3.54 ± 0.16
GCGGAGCAAUAUUACGGCUG,-2.61 ± 0.75,
UAACAGCAAUAUUACGUUGC,,-4.97 ± 0.51
UGGGAGCAAUAUUACGUUAA,-2.07 ± 0.67,
AUUUAGCAAUAUUACGGUAC,,-3.26 ± 0.62
CGGUAGCAAUAUUACGAGUC,-4.77 ± 0.74,
GAGUAGCAAUAUUACGUGUG,-1.87 ± 0.12,-2.73 ± 0.11

Sequence,self-splicing fitness (ln) (37 °C),self-splicing fitness (ln) (30 °C)
UCAUAGCAAUAUUACGUACC,-2 ± 0.53,-2.46 ± 0.65
CUCAAGCAAUAUUACGUCCC,-2.98 ± 1.1,
UUAUAGCAAUAUUACGGUAU,-1.68 ± 0.52,-3.65 ± 0.75
GGAUAGCAAUAUUACGCAUU,-1.65 ± 0.22,-3.51 ± 0.32
UGAUAGCAAUAUUACGGUGC,-2.2 ± 1.1,
CCGGAGCAAUAUUACGCUCG,-3.52 ± 0.73,-3.16 ± 0.28
CAUCAGCAAUAUUACGACCC,-0.684 ± 0.61,-2.63 ± 0.56
GUUAAGCAAUAUUACGCAAC,,-1.93 ± 0.54
UGUUAGCAAUAUUACGAUGA,-1.06 ± 0.092,-0.408 ± 0.09
UCUCAGCAAUAUUACGAGGC,,-3.47 ± 1
GGGGAGCAAUAUUACGGGCC,,-2.65 ± 0.62
CGCGAGCAAUAUUACGGUUC,-1.79 ± 0.67,-4.02 ± 0.59
UAAGAGCAAUAUUACGCGCC,,-4.26 ± 1
CCACAGCAAUAUUACGCUGA,-3.16 ± 0.24,-2.51 ± 0.12
GUGCAGCAAUAUUACGGACC,-0.677 ± 0.77,
UUCGAGCAAUAUUACGGACC,-1.54 ± 1.2,
UUAGAGCAAUAUUACGUUUC,-2.71 ± 0.76,
UGUGAGCAAUAUUACGUAAU,,-4.75 ± 0.72
AGGAAGCAAUAUUACGAAUC,-4.08 ± 0.72,
UAAGAGCAAUAUUACGGCCU,-1.79 ± 0.58,
UUGGAGCAAUAUUACGCCGC,,-2.65 ± 1.1
GAGUAGCAAUAUUACGAACA,,-0.643 ± 0.72
UCGUAGCAAUAUUACGACUC,,-3.2 ± 0.54
CGGUAGCAAUAUUACGAAAC,,-4.42 ± 0.59

Sequence,self-splicing fitness (ln) (37 °C),self-splicing fitness (ln) (30 °C)
UCCAAGCAAUAUUACGCUCC,-1.34 ± 0.71,-2.56 ± 0.65
UGAGAGCAAUAUUACGCCUC,-1.11 ± 0.87,-2.81 ± 0.55
GUAAAGCAAUAUUACGGAGC,-1.71 ± 0.21,-2.47 ± 0.2
UUUAAGCAAUAUUACGCUGC,-0.681 ± 1.4,-1.27 ± 1
CUGAAGCAAUAUUACGUUUA,-4 ± 0.59,
ACGGAGCAAUAUUACGCCGG,-1.97 ± 0.5,
CGCUAGCAAUAUUACGAGAU,-3.36 ± 0.23,-3.86 ± 0.19
ACGGAGCAAUAUUACGAAAC,,-4.98 ± 1
AGGGAGCAAUAUUACGAGGG,,-3.93 ± 0.53
GCGAAGCAAUAUUACGACGC,-0.287 ± 0.92,
AGGGAGCAAUAUUACGUGGG,-3.84 ± 0.51,
UGAGAGCAAUAUUACGAUGA,,-2.65 ± 0.79
CGGGAGCAAUAUUACGUAAC,-4.3 ± 0.59,
CUCUAGCAAUAUUACGUAAC,-3.93 ± 0.72,
CGGAAGCAAUAUUACGAGUC,-2.39 ± 0.31,-2.83 ± 0.22
UCCGAGCAAUAUUACGCUAC,-2.33 ± 0.63,
GGAUAGCAAUAUUACGCCUC,-1.62 ± 0.59,
CUUGAGCAAUAUUACGAGAA,-1.37 ± 0.62,
GAAGAGCAAUAUUACGCUAC,-4.09 ± 1,
GUAGAGCAAUAUUACGACGG,-1.45 ± 0.6,
AUGCAGCAAUAUUACGCCCU,0.0709 ± 0.25,-0.387 ± 0.22
UUAGAGCAAUAUUACGGGGC,-2.64 ± 1.1,
GUUGAGCAAUAUUACGCGGC,-1.33 ± 0.67,-1.27 ± 0.65
GGCUAGCAAUAUUACGAUGG,,-4.24 ± 0.59

Sequence,self-splicing fitness (ln) (37 °C),self-splicing fitness (ln) (30 °C)
AGUGAGCAAUAUUACGCCAA,-0.938 ± 0.57,-3.85 ± 0.52
UGGGAGCAAUAUUACGCACG,0.212 ± 0.56,
AGCGAGCAAUAUUACGGGAA,,-4.19 ± 0.53
UGAUAGCAAUAUUACGCAGC,-0.373 ± 0.92,-0.572 ± 1.2
CGCUAGCAAUAUUACGCUAU,,-4 ± 0.61
UAGUAGCAAUAUUACGAACA,-0.405 ± 0.42,0.239 ± 0.78
AAGAAGCAAUAUUACGCAGU,-2.08 ± 0.15,-2.66 ± 0.18
CUGGAGCAAUAUUACGACCU,-2.2 ± 0.6,-3.89 ± 0.74
UGGGAGCAAUAUUACGGUAU,-3.16 ± 1,-3.3 ± 0.61
UUGGAGCAAUAUUACGGGCA,,-2.31 ± 0.57
AGCGAGCAAUAUUACGUCGC,-2.9 ± 0.74,-2.94 ± 1.1
CCGGAGCAAUAUUACGCGCU,-3.19 ± 0.6,
CUGAAGCAAUAUUACGACAC,-1.38 ± 0.74,
GUUUAGCAAUAUUACGCCGG,-0.384 ± 0.82,
UCUGAGCAAUAUUACGGCCG,-2.17 ± 0.56,
UCCUAGCAAUAUUACGAAUC,,-5.08 ± 0.72
AUCGAGCAAUAUUACGCAUC,-3.43 ± 0.52,
AGAAAGCAAUAUUACGGUCU,-0.58 ± 0.09,-1.11 ± 0.082
CGUGAGCAAUAUUACGAAAU,-3.62 ± 0.6,-4.18 ± 0.6
CAGUAGCAAUAUUACGAAGA,-2.1 ± 0.41,-2.59 ± 0.63
UCGUAGCAAUAUUACGAGGC,-2.67 ± 1.1,
UUUUAGCAAUAUUACGCAGU,-1.98 ± 0.52,-3.94 ± 0.59
CUCCAGCAAUAUUACGGCCC,-2.34 ± 0.54,-3.72 ± 1
